Results taken from patent US20250129184A1, “TARGETED ANTICOAGULANT” (Northwestern University, priority 2016, published 2025).

Test system: ePTFE graft in abdominal aorta
Assay: rat abdominal aorta interposition model with ePTFE graft
Type: in vivo, Sprague Dawley rats
Details: two intravenous doses, 24 hours
Procedure: During the development of embodiments of the technology provided herein, experiments were conducted to evaluate the in vivo performance of the heparin-CREKA relative to conventional clinically used heparin. In particular, heparin-CREKA was studied in a rat abdominal aorta interposition model. Briefly, male Sprague Dawley rats (200-500 g) were anesthetized by a ketamine/xylazine cocktail. The abdomen of the anesthetized rat was entered through a midline incision. The abdominal aorta was exposed (FIG. 7, Panel A), clamped in both proximal and distal regions using micro-vessel clips, and then excised between the clamps (FIG. 7, Panel B). A segment (e.g., approximately 1 cm in length; 1.524±0.05 mm in diameter) of expanded polytetrafluoroethylene (ePTFE) was used as a graft. The graft was connected to the abdominal aorta using an end-to-end anastomosis technique with interrupted stitches at each end (FIG. 7, Panel C). Following reperfusion of blood flow through the graft, one dose of anti-coagulant (heparin or heparin-CREKA) was given systemically via intravenous injection. The incision was then closed in layers. 24 hours after the initial implantation surgeries and immediately prior to sacrifice of the test […], a second dose of […] (heparin or heparin-CREKA) was administered systemically via intravenous injection. […]

heparin-CREKA: heparin covalently linked through a BMPH linker to the fibrin binding peptide Cys-Arg-Glu-Lys-Ala (CREKA) (heparin via BMPH linker)
toluidine blue staining of the grafts (heparin detection) (middle_2 graft piece): toluidine staining | CREKA peptides at the graft site (avidin 594 nm staining, IVIS imaging) (proximal and middle_1 graft pieces): observed at the graft site
